No constants are given. Whether binding was seen depends on the method and setting. In cells and extracts the contact can be indirect. A result given as binding can be weak or reduced; the word gives no strength.
Biological target: GST-tagged murine AOC3, secretable form (GST-AOC3) (mouse) (UniProt O70423)
Experiment: pull-down

Amino acid sequences for entries named in this document (tags omitted). A change or cut given only in a name is not applied to a line headed by its entry. Residues count along the entry.
UniProt O70423: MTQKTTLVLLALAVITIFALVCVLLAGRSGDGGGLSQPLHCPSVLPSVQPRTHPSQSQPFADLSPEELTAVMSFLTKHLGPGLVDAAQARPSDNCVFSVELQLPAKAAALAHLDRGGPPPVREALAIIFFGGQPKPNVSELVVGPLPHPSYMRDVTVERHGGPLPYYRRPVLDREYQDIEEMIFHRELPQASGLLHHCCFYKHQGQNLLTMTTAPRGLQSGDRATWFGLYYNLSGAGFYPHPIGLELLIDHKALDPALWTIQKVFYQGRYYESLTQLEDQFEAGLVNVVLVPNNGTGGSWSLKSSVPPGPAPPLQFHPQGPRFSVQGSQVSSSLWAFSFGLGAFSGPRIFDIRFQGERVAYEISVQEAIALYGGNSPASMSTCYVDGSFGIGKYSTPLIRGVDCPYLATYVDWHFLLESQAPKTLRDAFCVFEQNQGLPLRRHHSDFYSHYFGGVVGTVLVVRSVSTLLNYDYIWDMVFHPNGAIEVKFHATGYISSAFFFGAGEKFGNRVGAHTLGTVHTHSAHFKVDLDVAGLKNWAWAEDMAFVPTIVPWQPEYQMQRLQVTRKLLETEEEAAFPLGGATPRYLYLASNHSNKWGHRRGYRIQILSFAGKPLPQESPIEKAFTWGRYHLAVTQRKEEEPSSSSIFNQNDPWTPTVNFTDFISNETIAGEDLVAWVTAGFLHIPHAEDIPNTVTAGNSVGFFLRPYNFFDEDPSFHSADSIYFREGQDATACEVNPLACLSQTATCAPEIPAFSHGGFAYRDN
UniProt Q64726, residues 18-307: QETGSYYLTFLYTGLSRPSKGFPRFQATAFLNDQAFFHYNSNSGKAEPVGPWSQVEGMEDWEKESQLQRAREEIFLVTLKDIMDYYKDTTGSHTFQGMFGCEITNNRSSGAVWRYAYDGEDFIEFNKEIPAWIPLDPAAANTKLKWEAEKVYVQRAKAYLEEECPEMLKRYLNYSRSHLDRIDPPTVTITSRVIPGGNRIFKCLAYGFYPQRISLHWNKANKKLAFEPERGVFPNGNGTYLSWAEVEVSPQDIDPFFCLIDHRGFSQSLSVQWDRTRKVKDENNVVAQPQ

binding: binds
Substance: murine plasma zinc-α2-glycoprotein (ZAG), endogenous (from UniProt Q64726 18-307)

Reference: article doi:10.1101/727214
